Assay [1] deals with T1, AP180 (rat (endogenous in rat brain synaptosomes)) (UniProt Q05140).
T1 sequence: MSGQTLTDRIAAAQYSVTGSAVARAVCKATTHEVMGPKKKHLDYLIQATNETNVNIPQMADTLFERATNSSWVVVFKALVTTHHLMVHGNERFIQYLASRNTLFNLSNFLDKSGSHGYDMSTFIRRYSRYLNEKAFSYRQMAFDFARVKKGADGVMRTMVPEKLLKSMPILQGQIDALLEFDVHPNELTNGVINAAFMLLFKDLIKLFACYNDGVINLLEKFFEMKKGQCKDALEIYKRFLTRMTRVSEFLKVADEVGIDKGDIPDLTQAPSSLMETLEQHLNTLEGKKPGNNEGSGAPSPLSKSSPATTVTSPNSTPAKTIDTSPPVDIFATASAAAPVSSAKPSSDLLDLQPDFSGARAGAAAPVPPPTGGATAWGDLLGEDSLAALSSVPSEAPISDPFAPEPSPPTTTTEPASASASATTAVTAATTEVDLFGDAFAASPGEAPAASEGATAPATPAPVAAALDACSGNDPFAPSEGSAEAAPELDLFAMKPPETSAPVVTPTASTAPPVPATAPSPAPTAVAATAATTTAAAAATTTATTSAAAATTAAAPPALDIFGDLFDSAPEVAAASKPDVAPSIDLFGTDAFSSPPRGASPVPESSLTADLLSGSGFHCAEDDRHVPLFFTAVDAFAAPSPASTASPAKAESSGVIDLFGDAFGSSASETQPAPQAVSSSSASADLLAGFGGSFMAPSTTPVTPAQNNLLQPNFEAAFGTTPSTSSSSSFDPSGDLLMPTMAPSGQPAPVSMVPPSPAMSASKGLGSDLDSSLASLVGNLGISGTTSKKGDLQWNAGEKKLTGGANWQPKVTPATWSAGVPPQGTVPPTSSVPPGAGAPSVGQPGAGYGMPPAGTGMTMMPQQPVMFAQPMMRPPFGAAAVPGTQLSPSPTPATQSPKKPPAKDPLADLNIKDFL
Briefly: co-IP; fractional recovery: immunoprecipitate from rat brain synaptosome lysate on beads split in three aliquots, 15 min on ice in RIPA buffer with 150, 650 or 1150 mM total salt; what stayed on the beads found by Western blot and densitometry; FR = recovery at 1150 mM / recovery at 150 mM, normalised to the FR of the IP-protein. (In general: Immunoblotting shows a protein as a band on a membrane.)

Chains of the proteins cited; added tags and fusions are not shown.
UniProt P11442: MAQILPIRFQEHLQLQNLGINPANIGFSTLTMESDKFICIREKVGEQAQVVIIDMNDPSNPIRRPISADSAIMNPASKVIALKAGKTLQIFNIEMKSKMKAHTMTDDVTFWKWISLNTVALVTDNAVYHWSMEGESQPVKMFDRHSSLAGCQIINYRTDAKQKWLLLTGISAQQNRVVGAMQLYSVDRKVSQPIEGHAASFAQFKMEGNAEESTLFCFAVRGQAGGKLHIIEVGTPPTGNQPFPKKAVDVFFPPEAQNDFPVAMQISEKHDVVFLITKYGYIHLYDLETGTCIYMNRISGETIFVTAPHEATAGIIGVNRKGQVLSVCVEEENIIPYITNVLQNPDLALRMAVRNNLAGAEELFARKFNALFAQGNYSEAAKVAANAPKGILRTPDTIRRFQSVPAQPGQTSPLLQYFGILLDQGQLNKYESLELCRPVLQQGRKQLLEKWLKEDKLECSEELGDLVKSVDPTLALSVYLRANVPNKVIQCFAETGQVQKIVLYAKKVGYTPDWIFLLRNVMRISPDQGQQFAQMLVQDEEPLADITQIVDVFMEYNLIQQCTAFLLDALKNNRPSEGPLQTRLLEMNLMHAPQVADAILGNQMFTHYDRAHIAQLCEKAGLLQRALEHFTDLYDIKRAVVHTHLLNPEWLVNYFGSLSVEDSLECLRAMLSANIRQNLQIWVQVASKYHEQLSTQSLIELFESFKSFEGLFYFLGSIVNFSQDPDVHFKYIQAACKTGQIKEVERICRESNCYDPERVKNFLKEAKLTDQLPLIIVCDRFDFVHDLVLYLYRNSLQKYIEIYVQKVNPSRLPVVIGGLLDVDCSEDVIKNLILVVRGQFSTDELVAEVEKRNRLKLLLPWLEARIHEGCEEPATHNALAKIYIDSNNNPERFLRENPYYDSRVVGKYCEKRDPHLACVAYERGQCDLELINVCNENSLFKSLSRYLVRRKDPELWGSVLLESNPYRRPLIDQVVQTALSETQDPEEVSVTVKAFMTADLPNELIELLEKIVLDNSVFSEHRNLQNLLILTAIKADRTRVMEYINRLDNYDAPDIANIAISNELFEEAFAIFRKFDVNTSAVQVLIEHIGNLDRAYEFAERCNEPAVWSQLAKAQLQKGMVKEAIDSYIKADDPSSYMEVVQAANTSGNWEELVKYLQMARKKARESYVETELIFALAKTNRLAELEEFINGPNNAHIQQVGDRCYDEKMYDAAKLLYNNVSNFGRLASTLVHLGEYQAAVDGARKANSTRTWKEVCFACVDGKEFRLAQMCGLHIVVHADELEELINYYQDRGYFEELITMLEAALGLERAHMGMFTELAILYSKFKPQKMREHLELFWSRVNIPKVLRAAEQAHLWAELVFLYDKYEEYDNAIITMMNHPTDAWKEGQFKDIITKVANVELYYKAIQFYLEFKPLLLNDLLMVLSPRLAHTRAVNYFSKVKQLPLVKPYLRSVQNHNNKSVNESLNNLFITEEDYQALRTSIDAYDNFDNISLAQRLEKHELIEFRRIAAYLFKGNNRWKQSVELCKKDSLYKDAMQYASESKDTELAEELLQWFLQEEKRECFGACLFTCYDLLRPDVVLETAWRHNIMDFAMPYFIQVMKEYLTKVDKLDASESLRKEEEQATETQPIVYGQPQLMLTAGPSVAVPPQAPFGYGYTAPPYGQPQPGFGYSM

Assay [2] concerns the target synaptotagmin 1 (rat (endogenous in rat brain synaptosomes)) (UniProt P21707). The assay is described as above.
Assay [3] has as its target T1, AP180 (rat (endogenous in rat brain synaptosomes)). Briefly: co-IP; rat brain synaptosome lysate in detergent lysis buffer at 150 mM ionic strength; antibody to the IP-protein overnight, protein A or A/G agarose beads, three washes; co-IP-protein found by Western blot.
Assay [4] has as its target heavy chain clathrin (rat (endogenous in rat brain synaptosomes)) (UniProt P11442). The description is as above.
The target of assay [5] is synaptotagmin 1 (rat (endogenous in rat brain synaptosomes)) (UniProt P21707). Nature of the assay: co-IP; fractional recovery: immunoprecipitate from rat brain synaptosome lysate on beads split in three aliquots, 15 min on ice in RIPA buffer with 150, 650 or 1150 mM total salt; what stayed on the beads found by Western blot and densitometry; FR = recovery at 1150 mM / recovery at 150 mM, normalised to the FR of the IP-protein. This is another data set of the same source.

Like-named read-outs stand apart in the source and are kept apart here. These are yes or no findings as the source states them, for the method shown. In cells and extracts the contact can be indirect. Some entries that bind do so weakly or less than the wild type.

Take “heavy chain clathrin (from UniProt P11442 1-1675)”: the binding result in assay [1] and in assay [2] was “binds” each time.

B1: synaptotagmin 1 (natural protein, UniProt P21707 1-421, looked up)
chain: MVSASHPEALAAPVTTVATLVPHNATEPASPGEGKEDAFSKLKQKFMNELHKIPLPPWALIAIAIVAVLLVVTCCFCVCKKCLFKKKNKKKGKEKGGKNAINMKDVKDLGKTMKDQALKDDDAETGLTDGEEKEEPKEEEKLGKLQYSLDYDFQNNQLLVGIIQAAELPALDMGGTSDPYVKVFLLPDKKKKFETKVHRKTLNPVFNEQFTFKVPYSELGGKTLVMAVYDFDRFSKHDIIGEFKVPMNTVDFGHVTEEWRDLQSAEKEEQEKLGDICFSLRYVPTAGKLTVVILEAKNLKKMDVGGLSDPYVKIHLMQNGKRLKKKKTTIKKNTLNPYYNESFSFEVPFEQIQKVQVVVTVLDYDKIGKNDAIGKVFVGYNSTGAELRHWSDMLANPRRPIAQWHTLQVEEEVDAMLAVKK
notes: synaptotagmin 1, endogenous in synaptosomes from brains of 2-10 day old Sprague Dawley rats; also called STG; STG 1; source: endogenous, rat brain synaptosome lysate
As for B1, the binding result in assay [3] and in assay [4] was “binds” in each case.

B2: AP180 (protein, UniProt Q05140 1-915)
chain: MSGQTLTDRIAAAQYSVTGSAVARAVCKATTHEVMGPKKKHLDYLIQATNETNVNIPQMADTLFERATNSSWVVVFKALVTTHHLMVHGNERFIQYLASRNTLFNLSNFLDKSGSHGYDMSTFIRRYSRYLNEKAFSYRQMAFDFARVKKGADGVMRTMVPEKLLKSMPILQGQIDALLEFDVHPNELTNGVINAAFMLLFKDLIKLFACYNDGVINLLEKFFEMKKGQCKDALEIYKRFLTRMTRVSEFLKVADEVGIDKGDIPDLTQAPSSLMETLEQHLNTLEGKKPGNNEGSGAPSPLSKSSPATTVTSPNSTPAKTIDTSPPVDIFATASAAAPVSSAKPSSDLLDLQPDFSGARAGAAAPVPPPTGGATAWGDLLGEDSLAALSSVPSEAPISDPFAPEPSPPTTTTEPASASASATTAVTAATTEVDLFGDAFAASPGEAPAASEGATAPATPAPVAAALDACSGNDPFAPSEGSAEAAPELDLFAMKPPETSAPVVTPTASTAPPVPATAPSPAPTAVAATAATTTAAAAATTTATTSAAAATTAAAPPALDIFGDLFDSAPEVAAASKPDVAPSIDLFGTDAFSSPPRGASPVPESSLTADLLSGSGFHCAEDDRHVPLFFTAVDAFAAPSPASTASPAKAESSGVIDLFGDAFGSSASETQPAPQAVSSSSASADLLAGFGGSFMAPSTTPVTPAQNNLLQPNFEAAFGTTPSTSSSSSFDPSGDLLMPTMAPSGQPAPVSMVPPSPAMSASKGLGSDLDSSLASLVGNLGISGTTSKKGDLQWNAGEKKLTGGANWQPKVTPATWSAGVPPQGTVPPTSSVPPGAGAPSVGQPGAGYGMPPAGTGMTMMPQQPVMFAQPMMRPPFGAAAVPGTQLSPSPTPATQSPKKPPAKDPLADLNIKDFL
On to B2, for which the binding entry in assay [5] is recorded as “binds”.

The record behind these values is PMC1762330, “‘Fractional Recovery’ Analysis of a Presynaptic Synaptotagmin 1-Anchored Endocytic Protein Complex” (PLoS ONE, 2006).
